Assay results: PubChem BioAssay AID493014 (National Center for Advancing Translational Sciences (NCATS), 2011)
Among all 340,000 compounds or so, about 170 (0.05%) were called active. Inconclusive means that the source gave no clear call. Such entries were picked first, then a sample of the others. Calls come from the whole dose curve; as a rule, active = well fitted inhibition curve with a large enough effect in the signal ratio, with a control signal flat (not every such curve was filed as active); inconclusive = small, poorly fitted or top-dose-only effect, or effect the other way, or a change in a side signal; inactive = flat fitted curve, though single readings scatter; the % refers to the signal ratio. A potency beside an inconclusive call is a rough fit, not a confirmed value.

Assay: qHTS Assay to Find Inhibitors of Chronic Active B-Cell Receptor Signaling;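 for activity change, negative = inhibition: plate controls were basal doxycycline-induced cells for no effect and cells given 10 µM MG132 for full effect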
Conditions: ABC-DLBCL IkBa-CBG/CBR reporter, luminescence ratio (green luciferase fused to IkBa over red control in TMD8 lymphoma cells), 4 h; activity change, negative = inhibition: at 46.1 µM (top of the series)
Procedure, shortened: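 Doxycycline induced both beetle luciferases in TMD8 lymphoma cells; IKK-driven degradation limits the IkappaBalpha-fused green signal, while red luminescence normalises for cell number and nonspecific effects. Compounds tested up to 46 uM, 4 hrs.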
Potency is the fitted concentration of half-maximal effect.

SMILES | activity change, negative = inhibition | Potency
COc1cc(C(=O)Nc2ccc3c(c2)OCCO3)ccc1OC(F)F | inconclusive: -7.22% | –
Cn1nc(-c2ccccc2)c2nc3ccccc3nc21 | inconclusive: 7.94% | –
COc1cc(/C=N/Nc2nncn2/N=C/c2ccc(O)c(OC)c2)ccc1O | – | inconclusive: 35.5 µM [falling, single point]
C=C(C)c1cccc(C(C)(C)NC(=O)NC2CCN(Cc3ccccc3)CC2)c1 | inconclusive: -18.6% | –
Cc1ccc(S(=O)(=O)N/N=C/c2ccc(OCC(=O)Nc3ccccc3Cl)cc2)cc1 | inconclusive: 0.214% | –
CCOc1ccc(S(=O)(=O)n2ccnc2C)cc1 | inconclusive: 3.11% | –
O=C(Nc1ccc(Cl)cc1)c1csc(-c2ccccc2)n1 | – | inconclusive: 20.6 µM [falling, single point]
COc1ccc(-c2cc(CCCC(=O)N3CCN(c4ccc(OC)cc4)CC3)no2)cc1 | – | inconclusive: 1.84 µM [falling, partial curve, poor fit]
Cc1cc(C)n2cc(-c3ccc(Cl)cc3)c(C(=O)O)c2n1 | – | inconclusive: 2 µM [falling, full curve]
CN(C)c1cc(N/N=C/c2ccccc2C(F)(F)F)nc(N(C)C)n1 | inconclusive: 8.41% | –
CCC(C)NC(=O)C1CCC(CNS(=O)(=O)c2ccc3c(c2)CC(C)N3C(C)=O)CC1 (stereo unspecified) | inactive | –
CCOC(=O)CN1C(=O)CC(c2ccc([N+](=O)[O-])cc2)C1=O (stereo unspecified) | inconclusive: 6.15% | –
N#CC1=C(N)SC(N)=C(C#N)C1c1c(Cl)cccc1Cl | – | inconclusive: 20 µM [falling, single point]
CN(C)/C=N/S(=O)(=O)c1ccc(Cl)c(Cl)c1 | inactive | –
COc1ccc2cc(C(=O)NCC(=O)O)sc(=O)c2c1OC | inconclusive: -0.692% | –
COC(=O)c1ccc2c(c1)SC1=C(CCCC1=O)N2 | inconclusive: 21.5% | –
CCOC(=O)NC(Nc1nnc(SCC)s1)(C(F)(F)F)C(F)(F)F | inconclusive: -1.24% | –
CC(=O)c1ccc(-n2c(CCC(=O)O)ccc2-c2ccccc2)cc1 | inconclusive: 8.81% | –
Cc1ccc2[nH]c(=O)c(CN3CCCCC3)c(-c3ccccc3)c2c1 | – | inconclusive: 14.1 µM [falling, partial curve, poor fit]
Cc1cc(C(=O)NC2Cc3ccccc3C2)c(C)o1 | inactive | –
Cc1ccc(OCC(=O)NCc2ccco2)cc1C | – | inconclusive: 29.1 µM [falling, single point]
O=C(Cc1ccccc1)NNc1ccc2ccccc2c1 | – | inconclusive: 3.16 µM [falling, partial curve]
Cc1ccc(-c2n[nH]c(=O)c3ccccc23)cc1S(=O)(=O)N(C)CCO | – | inconclusive: 8.2 µM [falling, partial curve]
CCn1c(-c2ccc(N)cc2)nc2ccccc21 | inactive | –
COc1ccc(C2C(C#N)=C(N)OC3=C2C(=O)CC(C)(C)C3)cc1OC (stereo unspecified) | inconclusive: 1.73% | –
Nc1ccc(Nc2ccncc2[N+](=O)[O-])cc1 | inconclusive: 1.96% | –

SMILES | activity change, negative = inhibition | Potency
Cc1cccc(-n2nnc(C(=O)NC3CCCc4ccccc43)c2N)c1 (stereo unspecified) | – | inconclusive: 12.6 µM [falling, partial curve]
CCOC(=O)N1CCN(C(=O)c2ccc3c(=O)n(-c4ccc(OC)cc4OC)c(=S)[nH]c3c2)CC1 | inactive | –
CCC1=C2CC[C@H]3C(=O)N(c4ccccc4)C(=O)[C@H]3[C@H]2[C@@]2(C)C(=NCc3ccccc3)OC(=O)N2C1=O | inconclusive: -11.8% | –
Cc1ccc(S(=O)(=O)NCCc2cc3ccc(C)cc3[nH]c2=O)cc1 | inconclusive: -12.9% | –
COc1ccc(-c2cc3ccc(OC(C)C(=O)O)cc3oc2=O)cc1 (stereo unspecified) | inactive | –
COc1cc(/C=N/NC(=O)COc2ccc(Cl)cc2)ccc1OS(=O)(=O)c1ccc(C)cc1 | inconclusive: 17.9% | –
Cc1ccc(S(=O)(=O)Nc2ccc(Cl)cc2)cc1NC(=O)c1cc2c(s1)CCCC2 | inconclusive: -2.39% | –
CCOc1cc(/C=C2\SC(=S)N(Nc3ccccc3)C2=O)ccc1O | inconclusive: -4.6% | –
COc1cc(/C=N/O)cc(Br)c1OCc1cccc(Cl)c1 | inconclusive: 18.9% | –
Cc1ccccc1N(CC(=O)N/N=C/c1cc(C)n(-c2ccccc2C)c1C)S(C)(=O)=O | – | inconclusive: 7.31 µM [falling, partial curve]
O=C(/C=C/c1cn(CC(O)CN2CCOCC2)c2ccccc12)c1cccs1 (stereo unspecified) | – | inconclusive: 12.6 µM [falling, single point]
Cc1nc2ccc(NC(=O)N3CCCCC3)cc2s1 | inactive | –
Cc1cc(C(=O)c2ccccc2)c(NC(=O)CCl)s1 | – | inconclusive: 23.1 µM [falling, partial curve]
Cc1ccc(NC(=O)CSc2cccc3cccnc23)c(C)c1 | – | inconclusive: 35.5 µM [falling, single point]
Fc1ccc(-c2csc3ncnc(N4CCc5ccccc5C4)c23)cc1 | inconclusive: -2.2% | –
CN(C)CCSc1nnc(-c2ccccc2)o1 | – | inconclusive: 23.1 µM [falling, single point]
COc1cccc(C2=NN(C(=O)c3ccccc3)C(O)(C(F)(F)F)C2)c1 (stereo unspecified) | – | inconclusive: 13 µM [falling, partial curve, poor fit]
Cc1c(C(=O)OCC2CCCO2)[nH]c2c1C(=O)CC(c1ccc(N(C)C)cc1)C2 (stereo unspecified) | inactive | –
C/C(=N/Nc1cc(-c2ccccc2)nc(-c2ccccc2)n1)c1ccc(O)cc1 | inconclusive: 11.1% | –
CCOc1cccc(C(=O)Nc2nnc(-c3cccs3)s2)c1 | – | inconclusive: 1.84 µM [falling, full curve]
CS(=O)(=O)N1CCCC(C(=O)N2CCN(c3cccc(Cl)c3)CC2)C1 (stereo unspecified) | inactive | –
COc1ccc(Cl)cc1N1C(=O)C2CCCN2C1c1ccc(F)c(F)c1 (stereo unspecified) | inconclusive: -8.51% | –
O=C1C=CC(=O)N1 | inconclusive: 10.8% | –
CC(=O)N1c2ccc(S(=O)(=O)N3CCCC(C(=O)N4CCCC(C)C4)C3)cc2CC1C (stereo unspecified) | inactive | –
Cc1ccc(N2C(=O)C3Sc4[nH]c(=O)sc4C(c4ccccc4)C3C2=O)cc1 (stereo unspecified) | inconclusive: -3.66% | –

Complete entries from above.
Cc1cccc(-n2nnc(C(=O)NC3CCCc4ccccc43)c2N)c1 (stereo unspecified) in the list: Potency: inconclusive: 12.6 µM [falling, partial curve]
Cc1ccc(S(=O)(=O)NCCc2cc3ccc(C)cc3[nH]c2=O)cc1 in the list: activity change, negative = inhibition: inconclusive: -12.9%
